Measured values as given in PMC6869211.
Results are given in words; binding and its absence hold for the method and conditions named. In cells and extracts the contact can be indirect. Some binding calls cover weakened binding; strength is not graded here.

The chains behind the UniProt entries cited, without tags or fusion partners.
UniProt P08047: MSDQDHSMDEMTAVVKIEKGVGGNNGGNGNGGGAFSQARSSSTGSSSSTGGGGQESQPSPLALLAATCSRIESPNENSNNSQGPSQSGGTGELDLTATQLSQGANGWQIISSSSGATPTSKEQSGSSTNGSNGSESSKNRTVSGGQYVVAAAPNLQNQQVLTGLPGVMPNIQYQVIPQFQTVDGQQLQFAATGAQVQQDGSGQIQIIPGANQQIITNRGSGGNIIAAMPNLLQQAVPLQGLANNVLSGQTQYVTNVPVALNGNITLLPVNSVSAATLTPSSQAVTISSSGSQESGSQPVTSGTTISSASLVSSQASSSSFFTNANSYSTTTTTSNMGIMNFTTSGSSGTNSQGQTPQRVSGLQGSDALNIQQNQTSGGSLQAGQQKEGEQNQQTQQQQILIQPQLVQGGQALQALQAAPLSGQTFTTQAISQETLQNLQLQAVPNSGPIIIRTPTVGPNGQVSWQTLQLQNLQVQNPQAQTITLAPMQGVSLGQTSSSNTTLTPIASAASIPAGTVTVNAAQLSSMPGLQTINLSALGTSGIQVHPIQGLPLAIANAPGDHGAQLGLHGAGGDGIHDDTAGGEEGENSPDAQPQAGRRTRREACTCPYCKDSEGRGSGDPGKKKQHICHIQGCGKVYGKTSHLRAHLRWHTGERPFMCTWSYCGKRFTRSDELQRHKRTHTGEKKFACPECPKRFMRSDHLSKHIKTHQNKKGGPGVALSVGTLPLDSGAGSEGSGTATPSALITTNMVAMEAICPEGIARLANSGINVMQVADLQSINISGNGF
UniProt Q16665: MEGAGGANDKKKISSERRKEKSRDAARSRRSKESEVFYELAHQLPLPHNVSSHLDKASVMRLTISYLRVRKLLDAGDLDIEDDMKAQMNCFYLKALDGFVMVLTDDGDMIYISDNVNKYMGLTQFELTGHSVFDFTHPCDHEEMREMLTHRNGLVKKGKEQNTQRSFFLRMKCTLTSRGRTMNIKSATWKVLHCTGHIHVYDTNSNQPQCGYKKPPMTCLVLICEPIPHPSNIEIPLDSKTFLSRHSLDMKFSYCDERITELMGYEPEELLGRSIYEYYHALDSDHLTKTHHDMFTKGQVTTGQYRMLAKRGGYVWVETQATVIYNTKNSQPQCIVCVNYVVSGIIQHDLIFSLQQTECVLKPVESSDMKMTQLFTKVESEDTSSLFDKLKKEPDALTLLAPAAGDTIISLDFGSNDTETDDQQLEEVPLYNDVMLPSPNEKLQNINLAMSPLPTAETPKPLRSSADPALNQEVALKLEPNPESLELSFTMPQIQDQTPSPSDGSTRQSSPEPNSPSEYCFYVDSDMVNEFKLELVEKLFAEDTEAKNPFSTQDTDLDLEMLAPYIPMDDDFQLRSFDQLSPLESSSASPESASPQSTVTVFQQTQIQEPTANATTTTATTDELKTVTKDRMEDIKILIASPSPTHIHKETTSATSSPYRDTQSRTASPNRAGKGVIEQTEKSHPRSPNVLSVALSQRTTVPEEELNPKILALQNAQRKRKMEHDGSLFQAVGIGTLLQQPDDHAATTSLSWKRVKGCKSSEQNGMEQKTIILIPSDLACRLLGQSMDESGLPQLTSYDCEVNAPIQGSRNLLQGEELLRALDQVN

Legend:
[1] = target: Specificity protein 1 (human (endogenous in A549)) (UniProt P08047); assay: co-IP; sequential nuclear co-IP: nuclear lysates of A549 cells under hypoxia (2 h and 8 h) immunoprecipitated, then western blotting; TFIID as input control
[2] = target: Hypoxia-inducible factor 1-alpha (human (endogenous in A549)) (UniProt Q16665); assay: as above

binding [1]	binding [2]	Substance
binds		Hypoxia-inducible factor 1-alpha (from UniProt Q16665 1-826)
	binds	Specificity protein 1 (from UniProt P08047 1-785)
